The text below walks through data of article PMC8237857.

These are yes or no findings as the source states them, for the method shown. Binding seen in cells or lysates may run through a third protein. A yes stands for co-enrichment or nearness to the bait. Other partners may have been found. Where a sequence is shown, tags or fusion partners need not be part of it.

The target of the test is T1, Flag-SNAPIN (Snapin full length in PCDH-3xFlag-3xHA-EF1-puromycin vector) (UniProt Q9Z266).
T1 sequence: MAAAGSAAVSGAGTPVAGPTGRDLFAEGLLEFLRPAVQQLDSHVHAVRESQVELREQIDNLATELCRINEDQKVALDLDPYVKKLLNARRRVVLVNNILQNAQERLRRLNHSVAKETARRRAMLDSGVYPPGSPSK
As to the kind of experiment: affinity purification with mass spectrometry; Min6 cells expressing Flag-SNAPIN or PCDH vector; whole cell lysates on Flag beads, eluted with Flag peptide; shotgun LC-MS/MS; each IP in triplicate.

B1: Bloc1s1 (protein, UniProt O55102 1-125)
chain: MLSRLLKEHQAKQNERKELQEKRRREAIAAATCLTEALVDHLNVGVAQAYMNQRKLDHEVKTLQVQAAQFAKQTGQWIGMVENFNQALKEIGDVENWARSIELDMRTIATALEYVYKGQLQSAPS
Turning to B1, the binding result is on record as “binds”.
